Measured values as given in patent publication US11214595B2, “BK channel-modulating peptides and their use” (UNIVERSITY OF SOUTH FLORIDA, priority 2016, dated 2022).
Some of these results come from one statement about several compounds together.

Tested on: wild type (N2) C. elegans
Assay: C. elegans crawl speed assay, wild type
Format: in vivo, Caenorhabditis elegans
Conditions: 750 μM peptide 30 minutes, before and/or after 20-minute ethanol exposure

For CVWVKRNVC (pskan17/LS17 peptide), the “crawl speed normalized to vehicle-treated controls” value (from here on “crawl speed normalized”) was “no significant effect”.

For CFTGGGGVC (pskan16/LS16 peptide), the “crawl speed normalized” value was “no significant effect”.

CGMASSFVC (pskan18/LS18 peptide) was tested, and the “crawl speed normalized” value was “no significant effect”.

In the case of CGGGGSRVC (pskan15/LS15 peptide), the “crawl speed normalized” value is reported as “no significant effect”.
